According to US3981982A, “Radioimmunoassay for determining the digoxin content of a sample” (Abbott Laboratories, priority 1974, dated 1976):

Test system: digoxin antibody
Assay: Precision of digoxin determination, five laboratories (Table II)
Set-up: species or system rabbits

Question: How did the “Mean” value (High Sample, Combined Results, 43 determinations) turn out when C[C@H]1O[C@@H](O[C@H]2[C@@H](O)C[C@H](O[C@H]3[C@@H](O)C[C@H](O[C@H]4CC[C@@]5(C)[C@H](CC[C@@H]6[C@@H]5C[C@@H](O)[C@]5(C)[C@@H](C7=CC(=O)OC7)CC[C@]65O)C4)O[C@@H]3C)O[C@@H]2C)C[C@H](O)[C@@H]1O [digoxin] was run?
Answer: Its value is 3.71 ng/mL.

Question: What about the “Mean” value (High Sample, Laboratory 1, 19 determinations) of the same molecule?
Answer: Its value is 3.70 ng/mL.

Question: And the “Mean” value (High Sample, Laboratory 2, 6 determinations)?
Answer: The value was 3.70 ng/mL.

Question: And the “Mean” value (High Sample, Laboratory 3, 5 determinations)?
Answer: Its value is 3.70 ng/mL.

Question: And the “Mean” value (High Sample, Laboratory 4, 6 determinations)?
Answer: Its value is 3.40 ng/mL.

Question: And the “Mean” value (High Sample, Laboratory 5, 7 determinations)?
Answer: The value was 3.90 ng/mL.

Question: What about the “Mean” value (Low Sample, Combined Results, 43 determinations) of the same molecule?
Answer: Its value is 0.61 ng/mL.

Question: What about the “Mean” value (Low Sample, Laboratory 1, 19 determinations) of the same molecule?
Answer: The value was 0.62 ng/mL.

Question: And the “Mean” value (Low Sample, Laboratory 2, 6 determinations)?
Answer: The value was 0.63 ng/mL.

Question: And the “Mean” value (Low Sample, Laboratory 3, 5 determinations)?
Answer: The value was 0.64 ng/mL.

Question: And the “Mean” value (Low Sample, Laboratory 4, 6 determinations)?
Answer: The value was 0.60 ng/mL.

Question: And the “Mean” value (Low Sample, Laboratory 5, 7 determinations)?
Answer: The value was 0.57 ng/mL.

Question: What about the “Mean” value (Medium Sample, Combined Results, 43 determinations) of the same molecule?
Answer: The value was 1.97 ng/mL.

Question: What about the “Mean” value (Medium Sample, Laboratory 1, 19 determinations) of the same molecule?
Answer: Its value is 2.00 ng/mL.

Question: What about the “Mean” value (Medium Sample, Laboratory 2, 6 determinations) of the same molecule?
Answer: The value was 1.90 ng/mL.

Question: What about the “Mean” value (Medium Sample, Laboratory 3, 5 determinations) of the same molecule?
Answer: The value was 2.00 ng/mL.

Question: What about the “Mean” value (Medium Sample, Laboratory 4, 6 determinations) of the same molecule?
Answer: Its value is 1.90 ng/mL.

Question: What about the “Mean” value (Medium Sample, Laboratory 5, 7 determinations) of the same molecule?
Answer: Its value is 2.00 ng/mL.
